This is one part of the list.

The subject of the assay is T1, CTL2-GFP (C. trachomatis L2/434/Bu, GFP-expressing).
T1 construct: L2/434/Bu, GFP-expressing
On the set-up: species or system HeLa; Intracellular C. trachomatis growth in HeLa cells, bulk GFP fluorescence relative to DMSO. As to conditions: bulk GFP, single well; 28.5 h, 10 µM; inhibitor.
In the case of `Cc1ccc(NCC2CCN(c3cc(=O)n4oc(C)cc4n3)C2)nc1` (stereo not shown) [CBK305827], the “% of control remaining” value turned out to be 135.527%.

Take `CCCn1cnnc1C(C)NC(=O)N(C)Cc1nc2cccc(C)c2[nH]1` (stereo not shown) [CBK307551]: the “% of control remaining” value is listed as 105.938%.

Take `c1ccc(Oc2nc3ccccc3n3cnnc23)cc1` [CBK287945]: the “% of control remaining” value was 168.111%.

Turning to `CCOC(=O)c1cnc2ccc(OC)cc2c1NCCN1CCOCC1` [CBK304199], the “% of control remaining” value is recorded as 107.845%.

For `CCn1c(Cc2ccccc2)nnc1SCC(=O)Nc1cc(Cl)ccc1O` [CBK268689], the “% of control remaining” value worked out at 91.5718%.

As for `Cc1nccn1CCCNC(=O)c1cccc(N2CCCCC2)c1` [CBK281646], the “% of control remaining” value stood at 118.268%.

In the case of `OCCN1CCN(Cc2cc(Br)cs2)CC1` [CBK261758], the “% of control remaining” value is 100%.

As to `Cc1oc2nc(SCC(=O)NCc3cccnc3)nc(N)c2c1C` [CBK266178], the “% of control remaining” value turned out to be 113.183%.

For `Cc1nc(C)c(C(=O)N2CCC(c3cc4cnccc4[nH]3)CC2)s1` [CBK283432], the “% of control remaining” value worked out at 92.8899%.

On to `O=C(c1cnn(-c2ccccc2)c1)N1CCc2[nH]c3ccccc3c2C1` [CBK281853], for which the “% of control remaining” value is listed as 150.918%.

Turning to `CCCN(CC(=O)NCc1ccco1)Cc1nnc(-c2ccco2)o1` [CBK305302], the “% of control remaining” value is recorded as 132.865%.

Turning to `O=S(=O)(CCc1ccccc1)N1CCCn2nc(-c3ccncc3)cc2C1` [CBK288608], the “% of control remaining” value turned out to be 103.186%.

With `Cn1cc(Cl)c(C2CCCCCN2C(=O)c2ccco2)n1` (stereo not shown) [CBK285105], the “% of control remaining” value was 136.138%.

Take `CCc1ccc(CNC(=O)Cn2nnc(-c3ccc(CNCCc4ccc(OC)c(OC)c4)cc3)n2)cc1` [CBK155008T]: the “% of control remaining” value came to 137.57%.

`Cc1n[nH]c2c1C(c1ccc(C(=O)O)cc1)C1=C(COC1=O)N2` (stereo not shown) [CBK286546]: the “% of control remaining” value worked out at 125.408%.

With `N#Cc1ccc(OCC(=O)Nc2cccnc2-n2cncn2)cc1` [CBK306004], the “% of control remaining” value is given as 163.978%.

With `COc1ccccc1NC(=O)NCCC1SC(NC2CCCCCC2)=NC1=O` (stereo not shown) [CBK067473], the “% of control remaining” value was found to be 111.519%.

As for `O=S(=O)(NCc1cccc(F)c1F)c1cc2c(N3CCNCC3)nccc2s1` [CBK047588C], the “% of control remaining” value turned out to be 99.6666%.

Consider `c1csc(-c2nn3c(Cn4nnc5ccccc54)nnc3s2)c1` [CBK268204], for which the “% of control remaining” value is 128.435%.

Consider `COc1ccc(CCCC(=O)NCc2ccc(OC3CCNCC3)cc2)cc1OC` [CBK028428T], for which the “% of control remaining” value came to 101.114%.

Turning to `COCCc1noc(CC2CCN(c3ncc(C#N)cc3F)CC2)n1` [CBK304153], the “% of control remaining” value is 92.2402%.

For the compound `CC(Cc1ccsc1)NS(=O)(=O)c1cccc(C(=O)N2CCCC2)c1` (stereo not shown) [CBK306923], the “% of control remaining” value came to 141.034%.

For `O=C(NC(C(=O)N/N=C/c1cccs1)c1n[nH]c(=O)c2ccccc12)c1ccccc1` (stereo not shown) [CBK261250], the “% of control remaining” value was 89.7075%.

Take `Nc1ncc(-c2cc(C(F)(F)F)cc(C(F)(F)F)c2)nc1NCCCO` [CBK063546]: the “% of control remaining” value is 141.391%.

With `CC1=NC2c3ccsc3C=CC2S1` (stereo not shown) [CBK008720], the “% of control remaining” value turned out to be 112.156%.

As for `CC(=O)NCC(=O)Nc1cnc(-c2cccc(C(F)(F)F)c2)c(-c2cccnc2)n1` [CBK036809], the “% of control remaining” value stood at 113.944%.

With `CCC1CCCCN1C(=O)c1cc2ccccc2s1` (stereo not shown) [CBK074211], the “% of control remaining” value was determined as 163.734%.

On to `Cc1ccc(S(=O)(=O)Nc2ccccc2CNc2ccccn2)cc1` [CBK264198], for which the “% of control remaining” value stood at 102.095%.

Take `Cc1cc2nc3c(nc2cc1C)CCNCC3` [CBK012302]: the “% of control remaining” value came to 105.605%.

For `COc1cc(/C=C2/SC(=S)N(CCC(=O)N3CCN(C)CC3)C2=O)cc(OC)c1OC` [CBK263656], the “% of control remaining” value is 116.358%.

As to `COc1ccc(C(C)C)cc1-c1cn2ccnc2c(Nc2ccc(N3CCOCC3)cc2)n1` [CBK037338], the “% of control remaining” value was 135.272%.

For `Cn1c(=O)n(CC(=O)NCc2ccc(F)cc2)c2cccnc21` [CBK283908], the “% of control remaining” value came out at 109.591%.

Take `CCn1c2cc(C)sc2c2cnn(CCN3CCCC3)c(=O)c21` [CBK284151]: the “% of control remaining” value came to 124.791%.

As for `Cc1ccc(C2=CCN(CC(=O)NCc3ccco3)CC2)o1` [CBK283632], the “% of control remaining” value is 82.1941%.

For `Cc1ccc(CNC(=O)COc2ccc(S(=O)(=O)N3CCOCC3)cc2)cc1` [CBK269816], the “% of control remaining” value was found to be 124.3%.

Consider `CCCCc1ccc(-c2nc(NC(=O)NCC)cc3cccnc23)cc1` [CBK081231], for which the “% of control remaining” value was found to be 83.5298%.

For `CCc1ccc(OCc2nnc(SCC(=O)NCCCC(=O)O)n2CC(C)C)cc1` [CBK295321], the “% of control remaining” value is 153.562%.

On to `O=C(O)c1cccc(Cn2c(C3CC3)n[nH]c2=S)c1` [CBK288401], for which the “% of control remaining” value is on record as 132.286%.

In the case of `CCOC(=O)CCSc1c(CC)c(C)nc2ccccc12` [CBK153457T], the “% of control remaining” value is reported as 107.215%.

Regarding `CCn1cc(Cl)c(C(=O)NC2CCN(c3nc(C)cc(=O)[nH]3)CC2)n1` [CBK304614], the “% of control remaining” value is given as 102.1%.

As to `FC(F)(F)c1nc2ccccc2nc1Sc1ccccn1` [CBK093781], the “% of control remaining” value is reported as 103.477%.

Consider `Cn1ccnc1C1(O)CCN(C(=O)c2ccc(F)cc2)CC1` [CBK283541], for which the “% of control remaining” value was determined as 91.9993%.

In the case of `Cc1noc(COc2ccc(OCc3nc(C)no3)cc2)n1` [CBK261364], the “% of control remaining” value turned out to be 100%.

For the compound `O=C(O)COCC(=O)N[C@H]1CCN2C(=O)c3ccc(Cl)cc3NC(=O)[C@H]12` [CBK289342], the “% of control remaining” value worked out at 118.242%.

As to `CC(=O)Nc1ccc(S(=O)(=O)Nc2ccc(-c3csc(C)n3)cc2)cc1` [CBK266261], the “% of control remaining” value stood at 147.423%.

`Cc1ccc(OCc2cccc3nsnc23)cc1[N+](=O)[O-]` [CBK266063]: the “% of control remaining” value is given as 142.14%.

As for `Cc1oc(-c2ccccc2)cc1C(=O)Nc1ccccc1N1CCCNCC1` [CBK038940T], the “% of control remaining” value is listed as 123.565%.

On to `c1cncc(C(N2CCOCC2)N2CCOCC2)c1` [CBK260999], for which the “% of control remaining” value turned out to be 116.372%.

Take `CCCCNC(=O)CCn1c(=O)[nH]c2ccccc2c1=O` [CBK287824]: the “% of control remaining” value is 117.95%.

Turning to `O=C(OCc1csc2ccc(Cl)cc12)N1CCOCC1` [CBK200164], the “% of control remaining” value stood at 106.378%.

As for `COc1ccc(C(C)C)cc1-c1nccnc1NCc1ccco1` [CBK036672], the “% of control remaining” value is 185.371%.

With `Cc1nn(C)c(C)c1-c1ccc(=O)n(Cc2ccc(F)cc2)n1` [CBK282258], the “% of control remaining” value was 106.859%.

The values are drawn from PMC12040169 (PLOS Biology, 2025).
